Reference: PubChem BioAssay AID652243 (Drosophila RNAi Screening Center, 2013)
The deposit covers about 24,000 reagents; this is a random part of those that have a named target and a result. In the full data, 246 (1%) were called active. 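Plates not normalised; calls are printed but the firefly/Renilla ratio behind them is not deposited; fold cut for lowering reported inconsistently.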 The raw values are shown without normalisation. Reagents against one gene are numbered here. A plus sign joins genes that one reagent is predicted to hit. Not stated in the record: the amount of reagent.

Purpose: 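Fly genes required for human androgen receptor driven transcription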 (primary screen)
System: Drosophila S2R+ cells
Reagent: long dsRNA against Drosophila genes
Time to read-out: 72 h (48 h, then 24 h hormone)
Conditions: synthetic androgen R1881 at 10 nM for 24 h
Read-out: 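Per-well raw luminescence of the androgen-driven firefly reporter and of the Renilla control, two replicates each, without normalisation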
Scale: firefly reporter light: higher = more light from androgen-responsive reporter; Renilla control light: higher = more constitutive control signal (cell number, transfection)
Call rule: 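Across duplicate plates, a knock-down whose log firefly/Renilla ratio shifted a set fold down or up from the GFP/LacZ control mean was a hit; the downward cut appears as both 1.5 and 3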
Calls: active = hit: reporter lowered or raised; inactive = no hit

predicted target	reagent no.	firefly reporter light, replicate 1	firefly reporter light, replicate 2	Renilla control light, replicate 1	Renilla control light, replicate 2	Outcome
CG7974	1	8.36e5	7.03e5	7.23e5	7.10e5	inactive
CG7974	2	4.46e5	4.78e5	7.29e5	7.75e5	inactive
Cnx99A (Calnexin 99A)	1	6.63e5	4.65e5	7.25e5	5.23e5	inactive
bs (blistered)	1	9.88e5	1.34e6	1.48e6	1.98e6	inactive
bs (blistered)	2	5.10e5	6.30e5	9.84e5	9.82e5	inactive
Ldh (Lactate dehydrogenase)	1	1.40e5	1.13e5	1.94e6	1.54e6	inactive
bnl (branchless)	1	2.52e5	74656	2.11e5	86023	inactive
bnl (branchless)	2	5.62e5	5.09e5	1.25e6	8.94e5	inactive
bnl (branchless)	3	3.78e5	2.61e5	1.53e6	1.17e6	inactive
CG6044	1	2.41e5	2.12e5	1.74e6	1.79e6	inactive
Acsx4 (Acyl-CoA synthetase X4)	1	2.13e5	2.36e5	2.64e6	2.57e6	inactive
Acsx4 (Acyl-CoA synthetase X4)	2	2.37e5	2.98e5	5.54e5	8.01e5	inactive
CG17760	1	3.10e5	2.80e5	1.35e6	2.24e6	inactive
CG17760	2	1.12e6	1.04e6	9.58e5	9.86e5	inactive
RpL7-like (Ribosomal protein L7-like)	1	1.47e5	2.14e5	1.84e6	3.23e6	inactive
RpL7-like (Ribosomal protein L7-like)	2	3.30e5	5.49e5	1.85e6	2.33e6	inactive
RpL7-like (Ribosomal protein L7-like)	3	9.45e5	1.03e6	2.13e6	2.45e6	inactive
Rbp1 (RNA-binding protein 1)	1	51326	24319	8.48e5	5.39e5	active
CG6813	1	1.16e5	1.25e5	1.96e6	1.97e6	inactive
twf (twinfilin)	1	33747	45517	2.90e5	3.06e5	active
twf (twinfilin)	2					inactive
beta-Spec (beta Spectrin)	1	5.11e5	5.49e5	3.51e6	3.39e6	inactive
Nep4 (Neprilysin 4)	1	55407	67876	7.74e5	8.09e5	inactive
Atac3 (Ada2a-containing complex component 3)	1	1.17e5	79154	9.34e5	1.12e6	inactive
BomBc3 (Bomanin Bicipital 3)	1	2.38e5	3.91e5	2.88e6	3.42e6	inactive
BomBc3 (Bomanin Bicipital 3)	2	6.26e5	6.37e5	9.84e5	9.84e5	inactive
CG11018	1	9.96e5	5.37e5	9.03e5	8.35e5	inactive
CG11018	2	4.39e5	5.56e5	1.07e6	9.99e5	inactive
mys (myospheroid)	1	2.74e5	2.12e5	3.09e6	3.16e6	inactive
mys (myospheroid)	2	6.07e5	5.12e5	1.26e6	9.03e5	inactive
CG11656	1	38266	41025	3.43e5	3.54e5	inactive
CG11656	2	1.04e6	9.16e5	1.93e6	1.25e6	inactive
Sox100B	1	1.96e5	1.63e5	2.02e6	2.46e6	inactive
Sox100B	2	1.91e5	3.05e5	7.89e5	5.08e5	inactive
CG17375	1	1.91e5	2.05e5	1.92e6	1.57e6	inactive
CG17375	2	4.10e5	4.55e5	8.82e5	8.82e5	inactive
trbd (trabid)	1	36754	53425	2.51e5	3.32e5	inactive
trbd (trabid)	2	6.21e5	5.45e5	1.74e6	1.23e6	inactive
CG17193	1	2.42e5	3.20e5	3.07e6	3.31e6	inactive
CG1542	1	81222	50384	7.46e5	3.05e5	inactive
CG1542	2	3.91e5	4.49e5	8.53e5	8.33e5	inactive
CG4582	1	1.73e5	2.38e5	2.74e6	2.93e6	inactive
Adgf-E (Adenosine deaminase-related growth factor E)	1	43910	87852	1.19e6	1.19e6	inactive
Adgf-E (Adenosine deaminase-related growth factor E)	2	5.22e5	5.78e5	8.16e5	9.48e5	inactive
CG13898	1	1.66e5	1.24e5	1.58e6	1.67e6	inactive
Pstk + Tim9b	1	84075	61093	6.37e5	4.36e5	inactive
Pstk + Tim9b	2	3.14e5	2.09e5	8.38e5	6.00e5	inactive
Pstk + Tim9b	3	7.66e5	7.71e5	1.69e6	1.38e6	inactive
Stt3A	1	76005	76107	4.77e5	5.30e5	inactive
Stt3A	2	4.19e5	6.29e5	3.76e5	4.05e5	inactive
comr (cookie monster)	1	2.69e5	2.71e5	1.57e6	1.20e6	inactive
Mink (Mitotic spindle and nuclear protein)	1	23376	34320	2.76e5	3.12e5	inactive
Pgant4 (Polypeptide N-Acetylgalactosaminyltransferase 4)	1	1.53e5	1.09e5	1.01e6	7.64e5	inactive
Pgant4 (Polypeptide N-Acetylgalactosaminyltransferase 4)	2	2.60e5	4.05e5	8.20e5	8.20e5	inactive
Pif1A + Pif1B	1	68576	87472	1.53e6	1.20e6	inactive
Pif1A + Pif1B	2	79195	75028	2.94e5	3.80e5	inactive
Pif1A + Pif1B	3	1.48e5	1.53e5	2.45e6	1.95e6	inactive
pelo (pelota)	1	8.96e5	1.02e6	1.51e6	1.29e6	inactive

Reprinted from the listing for reference:
predicted target	reagent no.	firefly reporter light, replicate 1	firefly reporter light, replicate 2	Renilla control light, replicate 1	Renilla control light, replicate 2	Outcome
CG17193	1	2.42e5	3.20e5	3.07e6	3.31e6	inactive
CG1542	1	81222	50384	7.46e5	3.05e5	inactive
CG1542	2	3.91e5	4.49e5	8.53e5	8.33e5	inactive
CG4582	1	1.73e5	2.38e5	2.74e6	2.93e6	inactive
Adgf-E (Adenosine deaminase-related growth factor E)	1	43910	87852	1.19e6	1.19e6	inactive
Adgf-E (Adenosine deaminase-related growth factor E)	2	5.22e5	5.78e5	8.16e5	9.48e5	inactive
CG13898	1	1.66e5	1.24e5	1.58e6	1.67e6	inactive
Pstk + Tim9b	1	84075	61093	6.37e5	4.36e5	inactive
Pstk + Tim9b	2	3.14e5	2.09e5	8.38e5	6.00e5	inactive
